From PubChem BioAssay (NCATS)
Where “and” joins values, the source holds several entries; their conditions need not be identical. Identical values can stand only once. For part of these data: The hits were mostly taken out for another list; the other results follow. Inconclusive results are not listed. This is a selection; strong and weak results do not stand in their true shares. Calls of active or inactive are those of the source. Unless noted, calls follow the shape of the full dose curve.

Protein sequences, listed by entry. Tags and fused reporters are not part of them. Lines headed by an entry give the natural chain unless they say otherwise; changes in a name come on top.
UniProt P10275: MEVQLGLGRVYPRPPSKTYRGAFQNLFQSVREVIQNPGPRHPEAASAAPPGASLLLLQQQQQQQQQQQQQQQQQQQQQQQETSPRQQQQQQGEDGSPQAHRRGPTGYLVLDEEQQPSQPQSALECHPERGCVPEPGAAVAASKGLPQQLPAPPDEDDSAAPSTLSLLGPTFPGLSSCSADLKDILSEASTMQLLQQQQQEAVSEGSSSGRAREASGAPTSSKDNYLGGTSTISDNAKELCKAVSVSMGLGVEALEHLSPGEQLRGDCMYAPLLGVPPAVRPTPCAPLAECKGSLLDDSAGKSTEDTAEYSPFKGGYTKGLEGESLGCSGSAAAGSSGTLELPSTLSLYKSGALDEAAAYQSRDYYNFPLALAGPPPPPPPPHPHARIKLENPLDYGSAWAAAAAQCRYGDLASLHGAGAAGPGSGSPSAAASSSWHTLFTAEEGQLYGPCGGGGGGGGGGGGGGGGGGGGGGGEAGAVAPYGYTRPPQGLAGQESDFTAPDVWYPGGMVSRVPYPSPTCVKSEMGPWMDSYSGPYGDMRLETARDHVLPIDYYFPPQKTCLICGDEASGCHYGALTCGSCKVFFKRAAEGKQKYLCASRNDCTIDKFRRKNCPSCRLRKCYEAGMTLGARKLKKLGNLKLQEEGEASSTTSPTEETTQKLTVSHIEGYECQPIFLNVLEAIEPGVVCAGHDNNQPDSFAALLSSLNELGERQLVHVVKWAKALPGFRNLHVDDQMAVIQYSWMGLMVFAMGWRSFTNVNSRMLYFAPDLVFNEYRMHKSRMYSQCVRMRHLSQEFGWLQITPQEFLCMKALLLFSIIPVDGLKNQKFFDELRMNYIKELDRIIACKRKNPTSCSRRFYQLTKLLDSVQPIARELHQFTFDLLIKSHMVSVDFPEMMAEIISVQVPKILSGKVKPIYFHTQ
UniProt Q03181: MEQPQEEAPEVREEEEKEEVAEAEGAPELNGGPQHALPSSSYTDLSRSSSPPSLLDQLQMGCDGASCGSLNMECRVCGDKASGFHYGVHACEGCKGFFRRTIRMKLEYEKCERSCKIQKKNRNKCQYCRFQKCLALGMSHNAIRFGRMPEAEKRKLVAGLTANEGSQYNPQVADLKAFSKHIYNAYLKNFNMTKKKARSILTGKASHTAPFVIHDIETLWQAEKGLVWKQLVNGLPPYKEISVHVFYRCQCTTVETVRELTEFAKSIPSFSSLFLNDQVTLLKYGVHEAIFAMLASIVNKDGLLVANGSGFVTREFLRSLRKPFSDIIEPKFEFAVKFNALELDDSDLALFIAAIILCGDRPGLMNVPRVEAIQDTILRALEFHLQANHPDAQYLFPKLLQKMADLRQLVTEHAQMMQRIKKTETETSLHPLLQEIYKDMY
UniProt P19793: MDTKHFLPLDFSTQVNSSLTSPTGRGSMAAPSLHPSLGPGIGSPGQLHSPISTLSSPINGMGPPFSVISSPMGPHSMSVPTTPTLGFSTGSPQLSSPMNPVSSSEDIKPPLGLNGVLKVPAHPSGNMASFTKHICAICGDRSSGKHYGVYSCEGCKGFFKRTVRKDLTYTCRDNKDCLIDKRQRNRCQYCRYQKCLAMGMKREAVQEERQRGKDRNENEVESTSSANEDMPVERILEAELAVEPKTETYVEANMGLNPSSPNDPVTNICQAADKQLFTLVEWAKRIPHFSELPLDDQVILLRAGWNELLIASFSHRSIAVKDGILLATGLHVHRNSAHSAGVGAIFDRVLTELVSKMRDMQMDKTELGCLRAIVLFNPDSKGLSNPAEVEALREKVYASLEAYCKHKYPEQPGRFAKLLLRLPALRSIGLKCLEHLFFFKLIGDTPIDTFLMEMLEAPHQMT
UniProt P10828: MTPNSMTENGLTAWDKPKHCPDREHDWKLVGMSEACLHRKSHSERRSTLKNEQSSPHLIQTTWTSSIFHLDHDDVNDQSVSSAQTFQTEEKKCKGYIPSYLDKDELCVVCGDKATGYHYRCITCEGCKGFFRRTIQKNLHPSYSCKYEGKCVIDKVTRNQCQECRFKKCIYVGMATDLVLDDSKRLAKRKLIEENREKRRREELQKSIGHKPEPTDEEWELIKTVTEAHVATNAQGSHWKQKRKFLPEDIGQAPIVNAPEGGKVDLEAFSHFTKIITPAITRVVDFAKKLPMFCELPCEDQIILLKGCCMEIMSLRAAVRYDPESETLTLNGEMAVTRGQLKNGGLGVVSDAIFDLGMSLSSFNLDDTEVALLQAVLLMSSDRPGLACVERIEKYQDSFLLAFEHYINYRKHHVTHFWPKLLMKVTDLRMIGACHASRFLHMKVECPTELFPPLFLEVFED
UniProt P01375, whole entry, looked up: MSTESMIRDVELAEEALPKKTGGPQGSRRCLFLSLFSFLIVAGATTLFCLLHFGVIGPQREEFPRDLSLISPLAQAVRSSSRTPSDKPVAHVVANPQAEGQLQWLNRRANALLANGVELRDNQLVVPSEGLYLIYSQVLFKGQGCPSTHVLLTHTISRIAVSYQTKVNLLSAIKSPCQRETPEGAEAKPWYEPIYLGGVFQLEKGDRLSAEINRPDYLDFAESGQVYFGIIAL

What was measured:
[1] = biological target: Androgen receptor (Homo sapiens) (UniProt P10275); test: qHTS assay for small molecule antagonists of androgen receptor signaling (AID 588516; active = well fitted curve in the direction sought with a large enough effect in the signal ratio, with a control signal flat, not every such curve was filed as active; the % refers to the signal ratio; also: % is scaled to controls: 0 for no effect and ±100 for the full control effect); conditions: AR-UAS-bla HEK293, beta-lactamase ratio, antagonist mode, 16 h; at 76.8 µM (top of the series)
Summary of the method: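 Antagonist mode: inhibition of R1881-stimulated (10 nM final) bla reporter in GeneBLAzer AR HEK 293 cells, 16 h at 37C, compounds titrated. IC50 and efficacy from Hill-equation fits of 405/460–530 nm FRET ratios.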

[2] = biological target: Glucocorticoid receptor (Homo sapiens) (UniProt P04150); test: qHTS assay for small molecule agonists of glucocorticoid receptor signaling (AID 588532; active = well fitted curve in the direction sought with a large enough effect in the signal ratio, with a control signal flat; the % refers to the signal ratio;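 also: 100% = dexamethasone at 0.1 µM and 0% = DMSO only wells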); conditions: HeLa MMTV-bla, beta-lactamase ratio, agonist, 18 h; stronger effect = higher value; percent of dexamethasone control, DMSO zero
Summary of the method: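 Titration series, up to 92 uM, applied to GRE-bla HeLa cells for 18 h at 37 C. Detection by CCF4 FRET substrate after 2 h at RT.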

[3] = biological target: Glucocorticoid receptor (Homo sapiens) (UniProt P04150); test: qHTS assay for small molecule antagonists of glucocorticoid receptor signaling (AID 588533; active = well fitted inhibition curve with a large enough effect in the signal ratio, with a control signal flat, not every such curve was filed as active; the % refers to the signal ratio;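 also: cells stimulated with 2 nM dexamethasone as agonist; % is scaled to controls: 0 for no effect and ±100 for the full control effect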); conditions: HeLa MMTV-bla, GRE beta-lactamase ratio, antagonist mode, 18 h; at 76.8 µM (top of the series)
Summary of the method: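 Antagonist-mode qHTS: compound titrations added to GRE-bla HeLa cells, then dexamethasone 2 nM final; 18 h, 37 C. CCF4 FRET fluorescence normalized to dexamethasone and DMSO; IC50 from Hill fit.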

[4] = biological target: Peroxisome proliferator-activated receptor delta (Homo sapiens) (UniProt Q03181); test: qHTS assay for small molecule agonists of peroxisome proliferator-activated receptor delta signaling (AID 588534); conditions: HEK293T PPARdelta-UAS-bla, beta-lactamase ratio, 18 h; at 76.7 µM (top of the series);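 also: 0% = DMSO basal wells and 100% = positive control agonist at 10 µM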
Summary of the method: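 Cell-based beta-lactamase reporter assay run in agonist mode: cells seeded and incubated 5 hrs at 37 C, compounds added and incubated 18 hrs at 37 C. CCF4 dye fluorescence read after 2 hrs at RT; EC50 and efficacy from Hill fits.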

[5] = qHTS assay for small molecule antagonists of peroxisome proliferator-activated receptor delta signaling (AID 588535; active = well fitted inhibition curve with a large enough effect in the signal ratio, with a control signal flat, not every such curve was filed as active; the % refers to the signal ratio;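 as to max response: cells co-treated with a PPAR-delta agonist as stimulator during compound exposure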); conditions: HEK293T PPARd-UAS-bla, beta-lactamase FRET ratio, 18 h; 460 nm channel
Summary of the method: (§1)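 GeneBLAzer PPAR-delta-UAS-bla HEK293T cells in medium with 2% charcoal/dextran FBS were preincubated 5 hrs at 37 C, then given compounds, incubated 18 hrs at 37 C, and read by CCF4 beta-lactamase fluorescence; IC50 from Hill fits.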

[6] = biological target: Peroxisome proliferator-activated receptor delta (Homo sapiens) (UniProt Q03181); test: as above; conditions: HEK293T PPARd-UAS-bla, beta-lactamase FRET ratio, 18 h; at 76.7 µM (top of the series)
Summary of the method: as §1

[7] = biological target: Peroxisome proliferator-activated receptor gamma (Homo sapiens) (UniProt P37231); test: qHTS assay for small molecule agonists of peroxisome proliferator-activated receptor gamma signaling (AID 588536; active = well fitted curve in the direction sought with a large enough effect in the signal ratio, with a control signal flat, not every such curve was filed as active; the % refers to the signal ratio;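 also: 0% = DMSO basal wells and 100% = rosiglitazone at 2 µM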); conditions: HEK293 PPARg-UAS-bla, beta-lactamase ratio, 16 h, percent of rosiglitazone response, DMSO as zero; at 76.7 µM (top of the series)
Summary of the method: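 HEK293 UAS-bla reporter line, 1% charcoal/dextran FBS; titration, 16 h, 37 C; CCF4 loading 2 h RT; fluorescence 460/530 nm. Normalized to rosiglitazone 2 uM = 100%, DMSO = 0%.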

[8] = biological target: Vitamin D3 receptor (Homo sapiens) (UniProt P11473); test: qHTS assay for small molecule antagonists of vitamin D receptor signaling (AID 588541); conditions: HEK293T VDR-UAS-bla, beta-lactamase ratio, antagonist mode; at 76.7 µM (top of the series);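 also: receptor activated by calcitriol during compound treatment; % is scaled to controls: 0 for no effect and ±100 for the full control effect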
Summary of the method: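 VDR-UAS-bla HEK293T cells (2000/well, 2% charcoal-stripped FBS) were treated with titrated compounds plus 1-alpha,25-dihydroxyvitamin D3 (50 nM or 3 nM final) for 16 h at 37 C. CCF4 beta-lactamase fluorescence was read; Hill fits gave IC50.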

[9] = biological target: Vitamin D3 receptor (Homo sapiens) (UniProt P11473); test: qHTS assay for small molecule agonists of vitamin D receptor signaling (AID 588543); conditions: HEK293T VDR-UAS-bla, beta-lactamase ratio, 16 h; at 76.8 µM (top of the series);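 also: 0% = DMSO basal and 100% = reference agonist control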
Summary of the method: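 Agonist-mode beta-lactamase reporter: HEK293T VDR-UAS-bla cells in charcoal-stripped 2% FBS, compound series 16 h 37 C, CCF4 2 h RT. EC50 from Hill fit, scaled against DMSO and 50 nM calcitriol control.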

[10] = qHTS assay for small molecule agonists of retinoid X receptor alpha signaling (AID 588544); conditions: HEK293T RXRa-UAS-bla, beta-lactamase reporter, 18 h; 530 nm emission;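 as to activation: 0% = DMSO basal wells and 100% = reference agonist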
[11] = biological target: Retinoic acid receptor RXR-alpha (Homo sapiens) (UniProt P19793); test: as above; conditions: HEK293T RXRa-UAS-bla, beta-lactamase reporter, 18 h; at 76.7 µM (top of the series)
[12] = biological target: Thyroid hormone receptor beta (Homo sapiens) (UniProt P10828); test: qHTS assay for small molecule agonists of thyroid hormone receptor beta signaling (AID 588545); conditions: TR-UAS-bla GripTite HEK 293, beta-lactamase ratio, agonist mode, 18 h, percent of T3 response, DMSO as zero; at 76.7 µM (top of the series);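 also: 0% = DMSO only and 100% = 10 nM T3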
Summary of the method: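 Compounds were tested as agonists in TR-UAS-bla-GripTite HEK 293 cells. After 18 hrs at 37 C, CCF4 substrate was added and fluorescence read after 2 hrs at room temperature.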

[13] = qHTS assay for small molecule antagonists of retinoid X receptor alpha signaling (AID 588546; active = well fitted inhibition curve with a large enough effect in the signal ratio, with a control signal flat, not every such curve was filed as active; the % refers to the signal ratio;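 also: cells stimulated with 9-cis-retinoic acid as agonist; % is scaled to controls: 0 for no effect and ±100 for the full control effect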); conditions: HEK293T RXRa-UAS-bla, beta-lactamase ratio, antagonist mode; measured here: W530 green channel, cytotoxicity proxy
Summary of the method: (§2)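 Beta-lactamase reporter inhibition, read as CCF4 fluorescence ratio (ex 405, em 460/530 nm) after 2 h at RT. HEK293T UAS-bla cells, 2500/well, were stimulated with 9-cis-RA at 500 or 100 nM final alongside test compound for 18 h at 37 C.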

[14] = biological target: Retinoic acid receptor RXR-alpha (Homo sapiens) (UniProt P19793); test: as above; conditions: HEK293T RXRa-UAS-bla, beta-lactamase ratio, antagonist mode
Summary of the method: as §2

[15] = biological target: Thyroid hormone receptor beta (Homo sapiens) (UniProt P10828); test: qHTS assay for small molecule antagonists of thyroid hormone receptor beta signaling (AID 588547; active = well fitted inhibition curve with a large enough effect in the signal ratio, with a control signal flat, not every such curve was filed as active; the % refers to the signal ratio); conditions: TR-UAS-bla HEK293, beta-lactamase ratio, antagonist mode, 18 h
Summary of the method: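 TR-UAS-bla GripTite HEK293 cells in 2% charcoal/dextran FBS medium were preincubated 4 h at 37 C, given compound (0.59 nM to 92 uM) plus 0.4 nM T3 (final) for 18 h, then CCF4 for 2 h at RT; Hill fit gave IC50.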

[16] = biological target: Tumor necrosis factor (Homo sapiens) (UniProt P01375); test: qHTS assay to identify small molecules that stimulate Tumor Necrosis Factor-alpha (TNF-alpha) secretion (AID 651757; active = well fitted curve in the direction sought with a large enough effect in the signal ratio; the % refers to the signal ratio; also: 0% is about no effect); conditions: Human cells, HTRF 665/615 ratio; at 92.2 µM (top of the series)
Summary of the method: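 THP-1 cells were exposed to compounds for 17 hrs at 37 C, after which secreted TNF-alpha was measured by homogeneous HTRF (TR-FRET) using cryptate- and XL665-labeled anti-TNF-alpha antibodies, read after 3 hr at room temperature.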

[17] = biological target: Bile acid receptor (Homo sapiens) (UniProt Q96RI1); test: qHTS assay for small molecule antagonists of farnesoid X receptor signaling (AID 588526); conditions: HEK293T FXR-UAS-bla, beta-lactamase ratio, antagonist mode; at 76.7 µM (top of the series); also: % is scaled to controls: 0 for no effect and ±100 for the full control effect
Summary of the method: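 Concentration-response titrations were fitted to the Hill equation for half-maximal inhibition and maximal response, with data normalised to 50 uM chenodeoxycholic acid and DMSO control wells. Cells: FXR-UAS-bla HEK293T, dialyzed FBS.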

[18] = biological target: Bile acid receptor (Homo sapiens) (UniProt Q96RI1); test: qHTS assay for small molecule agonists of farnesoid X receptor signaling (AID 588527); conditions: HEK293T FXR-UAS-bla, beta-lactamase ratio, 16 h; stronger effect = higher value;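 also: 0% = vehicle basal and 100% = reference agonist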
Summary of the method: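 Quantitative HTS used FXR-UAS-bla HEK293T cells with 16 h compound incubation at 37 C. EC50 values came from concentration-response curves normalized to chenodeoxycholic acid.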

[19] = biological target: Peroxisome proliferator-activated receptor gamma (Homo sapiens) (UniProt P37231); test: qHTS assay for small molecule antagonists of peroxisome proliferator-activated receptor gamma signaling (AID 588537; active = well fitted inhibition curve with a large enough effect in the signal ratio, with a control signal flat, not every such curve was filed as active; the % refers to the signal ratio;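 also: reporter cells co-stimulated with 50 nM rosiglitazone agonist during compound treatment; % of control where 0% means no effect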); conditions: HEK293 PPARg-UAS-bla, beta-lactamase ratio, antagonist mode; at 76.8 µM (top of the series)
Summary of the method: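 PPAR-gamma-UAS-bla HEK293 cells (3000/well, 1% charcoal/dextran-stripped FBS) were preincubated 6-6.5 h at 37 C, given titrated compounds, then stimulated with 50 nM rosiglitazone for 16 h. Beta-lactamase activity was read with CCF4 dye; IC50 came from Hill fits.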

[20] = qHTS assay to identify small molecules that stimulate interleukin-8 (IL-8) secretion (AID 651758; active = well fitted activation curve with a large enough effect in the signal ratio; the % refers to the signal ratio; also: 0% is about no effect); conditions: HTRF ratio (665/615); at 92.2 µM (top of the series)
Summary of the method: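 THP-1, 2000 cells/well; cpd 16 h, 37 C; add cryptate + XL665 anti-IL-8 Abs; RT 1-3 h; TR-FRET read.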

Cc1ccc2ccccc2c1C
inactive: activity change, negative = inhibition [1] -17% | activation [2] 2.17% | activity change, negative = inhibition [3] 1.54% | activation [4] 5.61% | activity change, negative = inhibition [6] -7.56% | activation [7] 0.649% | activity change, negative = inhibition [8] 7.63% | activation [9] 0.766% | activation [11] 5.41% | activation [12] 2.62% | max response [14] -1.21% | activity change % (negative = inhibition) [15] 6.06% | activation (TNF-alpha secretion) [16] 0.0348%
-7.35%: max response [5]
3.15%: max response [13]
-15.3%: max response [10]

CC(C)(C)c1ccc(O)cc1
inactive: activity change, negative = inhibition [17] -6.88% | activation [18] -5.98% | activation [4] -2.52% | activity change, negative = inhibition [6] -10.8% | activation [7] 5.92% | activity, negative = inhibition [19] 2.15% | activity change, negative = inhibition [8] -4.2% | activation [9] 1.28% | max response [14] 0.1%
-9.21%: max response [13]
-25%: max response [5]

Oc1c(Cl)cc(Cl)cc1Cl
0.427% and -9.55%: max response [10]
-13.9%: max response [13]
inactive: activation [2] -5.45% and 1.6% | activity change, negative = inhibition [3] 13.3% | activation [4] -1.37% and -0.886% | activity change, negative = inhibition [6] -21.9% and 19.1% | activation [7] -1.63% | activity, negative = inhibition [19] 0.0978% | activity change, negative = inhibition [8] 5.78% and 7.69% | activation [9] -2.24% and 1.27% | activation [11] 5.67% and 10.3% | activation [12] -37.3% and -0.508% | max response [14] 1.74% | activity change % (negative = inhibition) [15] 2.09% and 2.12% | activation (TNF-alpha secretion) [16] 0.328%
-16.5% and 15.5%: max response [5]

O=[N+]([O-])c1ccccc1Cl
inactive: activity change, negative = inhibition [17] 8.37% and -10.7% | activation [18] -0.554% and 0.494% | activation [2] 0.0037% and -2.11% | activity change, negative = inhibition [3] 8.76% and 1.86% | activation [4] 8.49% and -2.54% | activity change, negative = inhibition [6] -36.9% and 11.8% | activation [7] 1.43% and -2.84% | activity change, negative = inhibition [8] -5.02% and -1.24% | activation [9] 1.02% and 2.43% | activation [11] 2.3% and 2.73% | activation [12] -0.447% | max response [14] -0.25% and 2.4% | activity change % (negative = inhibition) [15] -5.68% and -6.09% | activation (TNF-alpha secretion) [16] 0.371% | activation [20] 21.1%
-13.2% and -9.35%: max response [13]
-6.91% and -4.34%: max response [10]
-52.6% and 7.01%: max response [5]

Cc1ccc(O)cc1C
-9%: max response [5]
-10.1%: max response [10]
2.19%: max response [13]
inactive: activation [4] 5.48% | activity change, negative = inhibition [6] -18.1% | activation [7] 1.47% | activity, negative = inhibition [19] 2.33% | activity change, negative = inhibition [8] -5.55% | activation [9] 1.99% | activation [11] 4.16% | activation [12] -17.6% | max response [14] -0.212% | activity change % (negative = inhibition) [15] 6.1% | activation (TNF-alpha secretion) [16] -0.428%
